The text below walks through data of paper PMC10443802 (JCI Insight, 2023).

This data set relates to OATP1B2. Briefly: Untargeted metabolomics of plasma and DRG, WT vs OATP1B2-deficient mice. It counts as in vivo, mouse. Particulars: untargeted metabolomics, WT vs OATP1B2-deficient mice.
Where [1] appears, read: supplement sheet "Figure 5B" (volcano plot).
Setting [2] is: Figure 5B source data (volcano plot), log2 fold change of metabolite level.

Structures are written as SMILES. Counter-ions that a name gives are not always drawn.

For `CCCCC/C=C\C/C=C\C/C=C\C/C=C\CCCC(=O)OC(CO)CO` [2-arachidonoylglycerol (20:4)], the Log2FoldChange (supplement sheet "Figure 5B") was -0.08927 and the Log2FoldChange (sheet "Figure 5C") worked out at 0.263.

Under “supplement sheet "Figure 5B"”, `C/C=C/C(=O)NCC(=O)O` [2-butenoylglycine] returned a Log2FoldChange of 0.111.

`CCC(C)C(O)C(=O)O` (stereo not drawn) [2-hydroxy-3-methylvalerate] showed a Log2FoldChange under setting [1] of 1.655.

For `O=C(O)CCCC(O)C(=O)O` (stereo not drawn) [2-hydroxyadipate], the Log2FoldChange is, setting by setting: under setting [2], -0.2345; (sheet "Figure 5C") 0.05658.

Regarding `CCCCCCCCCCCCCCCCCCC(O)C(=O)O` (stereo not drawn) [2-hydroxyarachidate*], the Log2FoldChange by setting is: under setting [2], -0.5995; (sheet "Figure 5C") 0.

As for `CCCCCCCCC(O)C(=O)O` (stereo not drawn) [2-hydroxydecanoate], the Log2FoldChange (supplement sheet "Figure 5B") is on record as 0.

`O=C(O)CCC(O)C(=O)O` (stereo not drawn) [2-hydroxyglutarate] registered a Log2FoldChange (supplement sheet "Figure 5B") of 0.08406.

Under “supplement sheet "Figure 5B"”, `O=C(O)CNC(=O)c1ccccc1O` [2-hydroxyhippurate (salicylurate)] gave a Log2FoldChange of -0.08927.

Where the note is “supplement sheet "Figure 5B"”, `CCCCCCC(O)C(=O)O` (stereo not drawn) [2-hydroxyoctanoate] returned a Log2FoldChange of -0.1203.

Under “sheet "Figure 5C"”, `CCCCCCCCCCCCCCC(O)C(=O)O` (stereo not drawn) [2-hydroxypalmitate] showed a Log2FoldChange of 0.4222.

As for `O=C(O)Cc1ccccc1O` [2-hydroxyphenylacetate], where the note is “supplement sheet "Figure 5B"”, the Log2FoldChange was found to be 0.09761.

Consider `CC(C)C(O)(CC(=O)O)C(=O)O` (stereo not drawn) [2-isopropylmalate], for which, under setting [1], the Log2FoldChange worked out at 0.433.

Under setting [1], `O=C(O)C(=O)CC(O)C(O)CO` (stereo not drawn) [2-keto-3-deoxy-gluconate] had a Log2FoldChange of 0.3103.

Molecule `O=C(O)C(=O)[C@@H](O)[C@H](O)[C@@H](O)CO` [2-ketogulonate] yielded a Log2FoldChange (supplement sheet "Figure 5B") of 0.09761.

In the case of `CCCCC/C=C\C/C=C\CCCCCCCC(=O)OC(CO)CO` [2-linoleoylglycerol (18:2)], the Log2FoldChange under setting [2] was -0.1844 and the Log2FoldChange (sheet "Figure 5C") came to 0.5656.

Consider `CCC(C)C(=O)OC(CC(=O)[O-])C[N+](C)(C)C` (stereo not drawn) [2-methylbutyrylcarnitine (C5)], for which, where the note is “supplement sheet "Figure 5B"”, the Log2FoldChange was 0.111.

Under setting [1], `CCC(C)C(=O)NCC(=O)O` (stereo not drawn) [2-methylbutyrylglycine] had a Log2FoldChange of 0.4751.

Regarding `CCCCCCCCCCCCCC(=O)OC(CO)CO` [2-myristoylglycerol (14:0)], the Log2FoldChange under setting [2] is on record as -0.2009 and the Log2FoldChange (sheet "Figure 5C") was found to be 0.7137.

The molecule `CCCCCCCC/C=C\CCCCCCCC(=O)OC(CO)CO` [2-oleoylglycerol (18:1)] had a Log2FoldChange (supplement sheet "Figure 5B") of -0.0145 and a Log2FoldChange (sheet "Figure 5C") of 0.2265.

In the case of `O=C(O)CC1C(=O)Nc2ccccc21` (stereo not drawn) [2-oxindole-3-acetate], the Log2FoldChange under setting [2] is given as -0.8625.

Molecule `O=C(O)CCCC(=O)C(=O)O` [2-oxoadipate] came in with a Log2FoldChange (supplement sheet "Figure 5B") of 0.

As for `CCCCCC/C=C\CCCCCCCC(=O)O[C@H](CO)COP(=O)([O-])OCC[N+](C)(C)C` [2-palmitoleoyl-GPC (16:1)*], the Log2FoldChange reads like this: under setting [1], 0.9635; (sheet "Figure 5C") 0.1375.

In turn, `CCCCCCCCCCCCCCCC(=O)O[C@H](CO)COP(=O)([O-])OCC[N+](C)(C)C` [2-palmitoyl-GPC (16:0)*] displayed a Log2FoldChange (supplement sheet "Figure 5B") of 0.2016 and a Log2FoldChange (sheet "Figure 5C") of 0.4005.

On to `CCCCCCCCCCCCCCCC(=O)OC(CO)CO` [2-palmitoylglycerol (16:0)], for which the Log2FoldChange is on record as -0.1361 (supplement sheet "Figure 5B") and 0.433 (sheet "Figure 5C").

In turn, `CCCCCCCCCCCCCCCCCC(=O)O[C@H](CO)COP(=O)(O)OCCN` [2-stearoyl-GPE (18:0)*] registered a Log2FoldChange under setting [1] of 0.3103 and a Log2FoldChange (sheet "Figure 5C") of 0.1763.

Regarding `C[C@@H](O)[C@@H](O)C(=O)O` [2R,3R-dihydroxybutyrate], the Log2FoldChange reads like this: (supplement sheet "Figure 5B") -0.08927; (sheet "Figure 5C") -0.4344.

On to `C[C@@H](O)[C@H](O)C(=O)O` [2S,3R-dihydroxybutyrate], for which the Log2FoldChange (supplement sheet "Figure 5B") is recorded as -0.1203.

For `O=C(O)c1c(O)c(Cl)cc(Cl)c1O` [3,5-dichloro-2,6-dihydroxybenzoic acid], the Log2FoldChange under setting [2] was -0.2009.

Molecule `NC(CCn1c(=O)ccn([C@@H]2O[C@H](CO)[C@@H](O)[C@H]2O)c1=O)C(=O)O` (stereo partly drawn) [3-(3-amino-3-carboxypropyl)uridine*] had a Log2FoldChange (supplement sheet "Figure 5B") of -0.074.

In the case of `O=C(O)CCc1cccc(OS(=O)(=O)O)c1` [3-(3-hydroxyphenyl)propionate sulfate], the Log2FoldChange under setting [2] is reported as -1.474.

For `O=C(O)CCc1cccc(O)c1` [3-(3-hydroxyphenyl)propionate], under setting [2], the Log2FoldChange was -1.4344.

In the case of `O=C(O)C(O)Cc1ccc(O)cc1` (stereo not drawn) [3-(4-hydroxyphenyl)lactate], the Log2FoldChange (sheet "Figure 5C") is recorded as 0.3334.

With `O=C(O)CCc1ccc(O)cc1` [3-(4-hydroxyphenyl)propionate], the Log2FoldChange under setting [2] is recorded as -1.69.

In the case of `CC(=O)c1cccc(OS(=O)(=O)O)c1` [3-acetylphenol sulfate], the Log2FoldChange under setting [2] is -1.089.

`NC1CCCNC1=O` (stereo not drawn) [3-amino-2-piperidone] yielded a Log2FoldChange (supplement sheet "Figure 5B") of 0.

With `CC(CN)C(=O)O` (stereo not drawn) [3-aminoisobutyrate], the Log2FoldChange by setting is: (supplement sheet "Figure 5B") 0.1763; (sheet "Figure 5C") 0.3219.

Under setting [1], `C[C@H](CCC(=O)O)[C@H]1CC[C@H]2[C@@H]3[C@H](O)C[C@@H]4CC(=O)CC[C@]4(C)[C@H]3C[C@H](O)[C@]12C` [3-dehydrocholate] came in with a Log2FoldChange of 0.8319.

Under “supplement sheet "Figure 5B"”, `O=Cc1c[nH]c2ccccc12` [3-formylindole] yielded a Log2FoldChange of 0.02857.

As for `CCC(CO)C(=O)O` (stereo not drawn) [3-hydroxy-2-ethylpropionate], the Log2FoldChange under setting [1] is 0.3219.

`CC(O)(CC(=O)O)CC(=O)O` [3-hydroxy-3-methylglutarate] showed a Log2FoldChange (supplement sheet "Figure 5B") of 0.09761.

For `O=C(O)CCC(O)CC(=O)O` (stereo not drawn) [3-hydroxyadipate], the Log2FoldChange (supplement sheet "Figure 5B") is listed as -0.1361.

With `CCCCCCCCCCCCCCCCCC(O)CC(=O)O` (stereo not drawn) [3-hydroxyarachidate*], the Log2FoldChange (sheet "Figure 5C") amounted to 0.2016.

With `CC(O)CC(=O)O` (stereo not drawn) [3-hydroxybutyrate (BHBA)], the Log2FoldChange under setting [2] is -0.2515.

In the case of `CCCCCCCC(O)CC(=O)O` (stereo not drawn) [3-hydroxydecanoate], the Log2FoldChange is -0.1203 (supplement sheet "Figure 5B") and -0.2345 (sheet "Figure 5C").

With `CCCCCCCC(O)CC(=O)OC(CC(=O)[O-])C[N+](C)(C)C` (stereo not drawn) [3-hydroxydecanoylcarnitine], under “sheet "Figure 5C"”, the Log2FoldChange stood at 0.263.

For `O=C(O)CCCCCCCCC(O)CC(=O)O` (stereo not drawn) [3-hydroxydodecanedioate*], the Log2FoldChange under setting [1] is 2.111.

Regarding `CCCC(O)CC(=O)O` (stereo not drawn) [3-hydroxyhexanoate], the Log2FoldChange is, setting by setting: (supplement sheet "Figure 5B") -0.1203; (sheet "Figure 5C") 0.05658.

For `CCCC(O)CC(=O)OC(CC(=O)[O-])C[N+](C)(C)C` (stereo not drawn) [3-hydroxyhexanoylcarnitine (1)], the Log2FoldChange (sheet "Figure 5C") was found to be 0.05658.

For the molecule `C[C@@H](CO)C(=O)O` [3-hydroxyisobutyrate], the Log2FoldChange (supplement sheet "Figure 5B") is given as -0.074 and the Log2FoldChange (sheet "Figure 5C") was 0.3785.

Consider `CCCCCCCCCC(O)CC(=O)O` (stereo not drawn) [3-hydroxylaurate], for which the Log2FoldChange (supplement sheet "Figure 5B") is -0.1203.

As to `CCCCCCCCCCCC(O)CC(=O)O` (stereo not drawn) [3-hydroxymyristate], the Log2FoldChange is listed as -0.1844 under setting [2] and 0.08406 (sheet "Figure 5C").

As to `CCCCCC(O)CC(=O)O` (stereo not drawn) [3-hydroxyoctanoate], the Log2FoldChange by setting is: (supplement sheet "Figure 5B") -0.152; (sheet "Figure 5C") 0.08406.
